Test results published in patent publication US12082907B2, “Systems, methods, and apparatus for multichannel imaging of fluorescent sources in real-time” (Memorial Sloan Kettering Cancer Center, priority 2013, dated 2024).

Test: Fluorescence detection sensitivity of serial dilutions at 10 cm from the detector face of the camera system
Assay type: physicochemical
Settings: for fluorescence signal intensity (detection sensitivity): distance 10 cm

In the case of `CC1(C)C(/C=C/C=C/C=C/C=C2\N(CCCCS(=O)(=O)O)c3ccc4ccccc4c3C2(C)C)=[N+](CCCCS(=O)(=O)[O-])c2ccc3ccccc3c21` [ICG, indocyanine green], the “maximum detection sensitivity (threshold concentration per particle volume)” value (10 cm from the detector face, 6 nm (C′ dots) vs 100 nm (ICG) particles) is reported as 1000 M/meter^3, the “fluorescence signal intensity (detection sensitivity)” value (shortened to “fluorescence signal intensity”) (NIR settings 80 W_14 dB_46 ms, dilution 1:2, concentration 7.5 uM) is reported as “>” and the “fluorescence signal intensity” value (NIR settings 80 W_14 dB_46 ms, dilution 1:10, concentration 1.5 uM) is reported as “>”. The “fluorescence signal intensity” value (NIR settings 80 W_14 dB_46 ms, dilution 1:100, concentration 0.15 uM) was 34, the “fluorescence signal intensity” value (NIR settings 80 W_14 dB_46 ms, dilution 1:210, concentration 0.071 uM) was 0 and the “fluorescence signal intensity” value (NIR settings 80 W_14 dB_46 ms, non-diluted, concentration 15 uM) was “>”. For the same molecule, the “fluorescence signal intensity” value (NIR settings 100 W_14 dB_80 ms, dilution 1:210, concentration 0.071 uM) was 35, the “fluorescence signal intensity” value (NIR settings 100 W_14 dB_80 ms, dilution 1:500, concentration 0.03 uM) was 21 and the “fluorescence signal intensity” value (NIR settings 100 W_14 dB_80 ms, dilution 1:1000, concentration 15 nM) was 0. The “fluorescence signal intensity” value (NIR settings 100 W_14 dB_80 ms, dilution 1:10000, concentration 1.5 nm) was 0.
